In the supplement of paper PMC8728848:
This is one part of the list.

How the values were obtained:
Assay in all cases: glycan array binding signal (z-score within array); higher = stronger binding
Conditions in all cases: glycan notation: IUPAC condensed, linker removed
[1] = target: Fuc(a1-2)Gal
In short: (§1)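 Arrays were curated from the Consortium for Functional Glycomics database, 3228 in total, and kept only where the protein sequence was available. Binding is expressed as a within-array Z-score. This score was averaged across arrays of the same protein sequence at different concentrations or buffers and across linkers, and negative values can be read as non-binding.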

[2] = target: Fuc(a1-2)Gal(b1-3)GalNAc
In short: as §1

[3] = target: Fuc(a1-2)Gal(b1-3)GalNAc(a1-3)[Fuc(a1-2)]Gal(b1-4)Glc
In short: as §1

[4] = target: Fuc(a1-2)Gal(b1-3)GalNAc(a1-3)[Fuc(a1-2)]Gal(b1-4)GlcNAc
In short: as §1

[5] = target: Fuc(a1-2)Gal(b1-3)GalNAc(b1-3)Gal
In short: as §1

[6] = target: Fuc(a1-2)Gal(b1-3)GalNAc(b1-3)Gal(a1-4)Gal(b1-4)Glc
In short: as §1

[7] = target: Fuc(a1-2)Gal(b1-3)GalNAc(b1-4)[Neu5Ac(a2-3)]Gal(b1-4)Glc
In short: as §1

[8] = target: Fuc(a1-2)Gal(b1-3)GlcNAc
In short: as §1

[9] = target: Fuc(a1-2)Gal(b1-3)GlcNAc(b1-2)Man(a1-3)[Fuc(a1-2)Gal(b1-3)GlcNAc(b1-2)Man(a1-6)]Man(b1-4)GlcNAc(b1-4)GlcNAc
In short: as §1

[10] = target: Fuc(a1-2)Gal(b1-3)GlcNAc(b1-2)Man(a1-3)[Fuc(a1-2)Gal(b1-3)GlcNAc(b1-2)Man(a1-6)]Man(b1-4)GlcNAc(b1-4)[Fuc(a1-6)]GlcNAc
In short: as §1

[11] = target: Fuc(a1-2)Gal(b1-3)GlcNAc(b1-3)Gal(b1-4)Glc
In short: as §1

[12] = target: Fuc(a1-2)Gal(b1-3)GlcNAc(b1-3)GalNAc
In short: as §1

[13] = target: Fuc(a1-2)Gal(b1-3)GlcNAc(b1-3)[Fuc(a1-2)Gal(b1-3)GlcNAc(b1-6)]GalNAc
In short: as §1

[14] = target: Fuc(a1-2)Gal(b1-3)GlcNAc(b1-3)[Gal(b1-4)GlcNAc(b1-6)]Gal(b1-4)Glc
In short: as §1

[15] = target: Fuc(a1-2)Gal(b1-3)GlcNAc(b1-3)[Neu5Ac(a2-6)Gal(b1-4)GlcNAc(b1-6)]Gal(b1-4)Glc
In short: as §1

[16] = target: Fuc(a1-2)Gal(b1-3)GlcNAc6S
In short: as §1

[17] = target: Fuc(a1-2)Gal(b1-3)[Fuc(a1-4)]GlcNAc
In short: as §1

[18] = target: Fuc(a1-2)Gal(b1-3)[Fuc(a1-4)]GlcNAc(b1-2)Man(a1-3)[Fuc(a1-2)Gal(b1-3)[Fuc(a1-4)]GlcNAc(b1-2)Man(a1-3)]Man(b1-4)GlcNAc(b1-4)GlcNAc
In short: as §1

[19] = target: Fuc(a1-2)Gal(b1-3)[Fuc(a1-4)]GlcNAc(b1-2)Man(a1-3)[Fuc(a1-2)Gal(b1-3)[Fuc(a1-4)]GlcNAc(b1-2)Man(a1-6)]Man(b1-4)GlcNAc(b1-4)[Fuc(a1-6)]GlcNAc(b1-4)[Fuc(a1-6)]GlcNAc
In short: as §1

[20] = target: Fuc(a1-2)Gal(b1-3)[Fuc(a1-4)]GlcNAc(b1-3)[Fuc(a1-3)[Gal(b1-4)]GlcNAc(b1-6)]Gal(b1-4)Glc
In short: as §1

[21] = target: Fuc(a1-2)Gal(b1-3)[Fuc(a1-4)]GlcNAc(b1-3)[Gal(b1-4)GlcNAc(b1-6)]Gal(b1-4)Glc
In short: as §1

[22] = target: Fuc(a1-2)Gal(b1-4)Glc
In short: as §1

[23] = target: Fuc(a1-2)Gal(b1-4)Glc6S
In short: as §1

[24] = target: Fuc(a1-2)Gal(b1-4)GlcNAc
In short: as §1

[25] = target: Fuc(a1-2)Gal(b1-4)GlcNAc(b1-2)Man
In short: as §1

[26] = target: Fuc(a1-2)Gal(b1-4)GlcNAc(b1-2)Man(a1-3)[Fuc(a1-2)Gal(b1-4)GlcNAc(b1-2)Man(a1-6)]Man(b1-4)GlcNAc(b1-4)GlcNAc
In short: as §1

[27] = target: Fuc(a1-2)Gal(b1-4)GlcNAc(b1-2)Man(a1-3)[Fuc(a1-2)Gal(b1-4)GlcNAc(b1-2)Man(a1-6)]Man(b1-4)GlcNAc(b1-4)[Fuc(a1-6)]GlcNAc
In short: as §1

[28] = target: Fuc(a1-2)Gal(b1-4)GlcNAc(b1-2)[Fuc(a1-2)Gal(b1-4)GlcNAc(b1-4)]Man(a1-3)[Fuc(a1-2)Gal(b1-4)GlcNAc(b1-2)Man(a1-6)]Man(b1-4)GlcNAc(b1-4)GlcNAc
In short: as §1

[29] = target: Fuc(a1-2)Gal(b1-4)GlcNAc(b1-3)Gal(b1-4)GlcNAc
In short: as §1

[30] = target: Fuc(a1-2)Gal(b1-4)GlcNAc(b1-3)Gal(b1-4)GlcNAc(b1-2)Man(a1-3)[Fuc(a1-2)Gal(b1-4)GlcNAc(b1-3)Gal(b1-4)GlcNAc(b1-2)Man(a1-6)]Man(b1-4)GlcNAc(b1-4)GlcNAc
In short: as §1

[31] = target: Fuc(a1-2)Gal(b1-4)GlcNAc(b1-3)Gal(b1-4)GlcNAc(b1-3)Gal(b1-4)GlcNAc
In short: as §1

[32] = target: Fuc(a1-2)Gal(b1-4)GlcNAc(b1-3)GalNAc
In short: as §1

[33] = target: Fuc(a1-2)Gal(b1-4)GlcNAc(b1-3)[Fuc(a1-2)Gal(b1-4)GlcNAc(b1-6)]GalNAc
In short: as §1

[34] = target: Fuc(a1-2)Gal(b1-4)GlcNAc(b1-3)[Fuc(a1-3)[Gal(b1-4)]GlcNAc(b1-6)]Gal(b1-4)Glc
In short: as §1

[35] = target: Fuc(a1-2)Gal(b1-4)GlcNAc(b1-6)GalNAc
In short: as §1

[36] = target: Fuc(a1-2)Gal(b1-4)GlcNAc6S
In short: as §1

[37] = target: Fuc(a1-2)Gal(b1-4)[Fuc(a1-3)]GlcNAc
In short: as §1

[38] = target: Fuc(a1-2)Gal(b1-4)[Fuc(a1-3)]GlcNAc(b1-2)Man(a1-3)[Fuc(a1-2)Gal(b1-4)[Fuc(a1-3)]GlcNAc(b1-2)Man(a1-6)]Man(b1-4)GlcNAc(b1-4)[Fuc(a1-6)]GlcNAc
In short: as §1

[39] = target: Fuc(a1-2)Gal(b1-4)[Fuc(a1-3)]GlcNAc(b1-2)[Fuc(a1-2)Gal(b1-4)[Fuc(a1-3)]GlcNAc(b1-4)]Man(a1-3)[Fuc(a1-2)Gal(b1-4)[Fuc(a1-3)]GlcNAc(b1-2)Man(a1-6)]Man(b1-4)GlcNAc(b1-4)GlcNAc
In short: as §1

[40] = target: Fuc(a1-2)Gal(b1-4)[Fuc(a1-3)]GlcNAc(b1-3)Gal(b1-4)[Fuc(a1-3)]GlcNAc
In short: as §1

[41] = target: Fuc(a1-2)Gal(b1-4)[Fuc(a1-3)]GlcNAc(b1-3)Gal(b1-4)[Fuc(a1-3)]GlcNAc(b1-3)Gal(b1-4)[Fuc(a1-3)]GlcNAc
In short: as §1

[42] = target: Fuc(a1-2)Gal(b1-4)[Fuc(a1-3)]GlcNAc(b1-3)GalNAc
In short: as §1

[43] = target: Fuc(a1-2)Gal(b1-4)[Fuc(a1-3)]GlcNAc(b1-3)[Neu5Ac(a2-6)Gal(b1-4)GlcNAc(b1-6)]Gal(b1-4)Glc
In short: as §1

[44] = target: Fuc(a1-2)Gal3S(b1-4)GlcNAc
In short: as §1

[45] = target: Fuc(a1-2)Gal6S(b1-3)GlcNAc
In short: as §1

[46] = target: Fuc(a1-2)Gal6S(b1-3)GlcNAc6S
In short: as §1

[47] = target: Fuc(a1-2)Gal6S(b1-4)Glc
In short: as §1

[48] = target: Fuc(a1-2)Gal6S(b1-4)Glc6S
In short: as §1

[49] = target: Fuc(a1-2)[Gal(a1-3)]Gal
In short: as §1

[50] = target: Fuc(a1-2)[Gal(a1-3)]Gal(b1-3)GalNAc
In short: as §1

[51] = target: Fuc(a1-2)[Gal(a1-3)]Gal(b1-3)GalNAc(b1-3)Gal(a1-4)Gal(b1-4)Glc
In short: as §1

[52] = target: Fuc(a1-2)[Gal(a1-3)]Gal(b1-3)GlcNAc
In short: as §1

[53] = target: Fuc(a1-2)[Gal(a1-3)]Gal(b1-3)GlcNAc(b1-2)Man(a1-3)[Fuc(a1-2)[Gal(a1-3)]Gal(b1-3)GlcNAc(b1-2)Man(a1-6)]Man(b1-4)GlcNAc(b1-4)GlcNAc
In short: as §1

[54] = target: Fuc(a1-2)[Gal(a1-3)]Gal(b1-3)GlcNAc(b1-2)Man(a1-3)[Fuc(a1-2)[Gal(a1-3)]Gal(b1-3)GlcNAc(b1-2)Man(a1-6)]Man(b1-4)GlcNAc(b1-4)[Fuc(a1-6)]GlcNAc
In short: as §1

[55] = target: Fuc(a1-2)[Gal(a1-3)]Gal(b1-3)GlcNAc(b1-3)GalNAc
In short: as §1

[56] = target: Fuc(a1-2)[Gal(a1-3)]Gal(b1-3)GlcNAc(b1-6)GalNAc
In short: as §1

[57] = target: Fuc(a1-2)[Gal(a1-3)]Gal(b1-4)Glc
In short: as §1

[58] = target: Fuc(a1-2)[Gal(a1-3)]Gal(b1-4)GlcNAc
In short: as §1

[59] = target: Fuc(a1-2)[Gal(a1-3)]Gal(b1-4)GlcNAc(b1-2)Man
In short: as §1

[60] = target: Fuc(a1-2)[Gal(a1-3)]Gal(b1-4)GlcNAc(b1-2)Man(a1-3)[Fuc(a1-2)[Gal(a1-3)]Gal(b1-4)GlcNAc(b1-2)Man(a1-6)]Man(b1-4)GlcNAc(b1-4)GlcNAc
In short: as §1

B1: SJCP1531 (Schistosoma japonicum) (protein)
chain: MFKVRIINLVNISTVLLLINLLQTKSQVNVEQLVTVLEVNIKAQLKNKTTEVLVEWNPLYQDNSMPEYRKLLDETCKLFLPFVNEKVPPSTYGGECTNANFSEAPQDGSYSRVNAELRLIYKYSDNPQIQTDRLQDDLNDREEFITSESSFVAYNPKFTVKIEKLFIPISESQTTPPPTTAKNDASKKDDDDNGGEDSKAPIDTFAMTASGNKGKKDDDDNGGEDSKAPIDTFAMTASGSKDERSTWTIIGIITLVVLIFVVIGGGITVFVKRC
[1]
  glycan array binding signal (z-score): 0.475
[2]
  glycan array binding signal (z-score): -0.01
[3]
  glycan array binding signal (z-score): -1.49
[4]
  glycan array binding signal (z-score): -0.571
[5]
  glycan array binding signal (z-score): -0.244
[6]
  glycan array binding signal (z-score): -0.517
[7]
  glycan array binding signal (z-score): -0.648
[8]
  glycan array binding signal (z-score): -1.13
[9]
  glycan array binding signal (z-score): -0.207
[10]
  glycan array binding signal (z-score): 0.318
[11]
  glycan array binding signal (z-score): -1.19
[12]
  glycan array binding signal (z-score): -0.217
[13]
  glycan array binding signal (z-score): -1.13
[14]
  glycan array binding signal (z-score): -1.05
[15]
  glycan array binding signal (z-score): -1.34
[16]
  glycan array binding signal (z-score): -0.955
[17]
  glycan array binding signal (z-score): 0.144
[18]
  glycan array binding signal (z-score): 0.767
[19]
  glycan array binding signal (z-score): 1.79
[20]
  glycan array binding signal (z-score): -0.454
[21]
  glycan array binding signal (z-score): 0.498
[22]
  glycan array binding signal (z-score): 0.074
[23]
  glycan array binding signal (z-score): -0.427
[24]
  glycan array binding signal (z-score): -0.359
[25]
  glycan array binding signal (z-score): -0.023
[26]
  glycan array binding signal (z-score): -0.454
[27]
  glycan array binding signal (z-score): 0.332
[28]
  glycan array binding signal (z-score): 2.3
[29]
  glycan array binding signal (z-score): -0.674
[30]
  glycan array binding signal (z-score): 0.352
[31]
  glycan array binding signal (z-score): -1.15
[32]
  glycan array binding signal (z-score): 0.199
[33]
  glycan array binding signal (z-score): -0.084
[34]
  glycan array binding signal (z-score): 0.016
[35]
  glycan array binding signal (z-score): -0.358
[36]
  glycan array binding signal (z-score): -0.85
[37]
  glycan array binding signal (z-score): 0.016
[38]
  glycan array binding signal (z-score): 0.902
[39]
  glycan array binding signal (z-score): 0.874
[40]
  glycan array binding signal (z-score): -0.003
[41]
  glycan array binding signal (z-score): 0.243
[42]
  glycan array binding signal (z-score): -1.64
[43]
  glycan array binding signal (z-score): -0.122
[44]
  glycan array binding signal (z-score): -0.935
[45]
  glycan array binding signal (z-score): 0.487
[46]
  glycan array binding signal (z-score): -1.24
[47]
  glycan array binding signal (z-score): 0.605
[48]
  glycan array binding signal (z-score): -0.261
[49]
  glycan array binding signal (z-score): 0.637
[50]
  glycan array binding signal (z-score): -0.135
[51]
  glycan array binding signal (z-score): -0.741
[52]
  glycan array binding signal (z-score): 1.16
[53]
  glycan array binding signal (z-score): -0.108
[54]
  glycan array binding signal (z-score): 0.774
[55]
  glycan array binding signal (z-score): -1.19
[56]
  glycan array binding signal (z-score): -0.582
[57]
  glycan array binding signal (z-score): 0.437
[58]
  glycan array binding signal (z-score): -0.849
[59]
  glycan array binding signal (z-score): 0.387
[60]
  glycan array binding signal (z-score): 0.761
